# Assay results

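Genome-wide siRNA knockdown in TC32 Ewing sarcoma cells, comparing luciferase light from an NR0B1-promoter reporter with a CMV-promoter reporter 48 hours after transfection.
Each siRNA was applied at 20 nM.
A z-score of the log NR0B1-over-CMV signal, less the median of siRNAs with the same seed; more negative means a stronger specific loss of the NR0B1 reporter.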

The strongest results of the screen are mostly left out here.
Sequences are the guide (antisense) strand, without overhang.

{"sirna": "UUGUAUUCCAUAAACGCAG", "gene": "STRN", "seed-corrected z-score": "-1.528"}
{"sirna": "UCUUCUUGUAGUCAAAGUC", "gene": "SH3GL1", "seed-corrected z-score": "1.734"}
{"sirna": "UCAAUGUACUCAGUAAAGC", "gene": "TAF7L", "seed-corrected z-score": "-0.1222"}
{"sirna": "UCCACAAUUACUGCAGCUC", "gene": "ZFYVE27", "seed-corrected z-score": "0.3833"}
{"sirna": "UGCGUUUCCAGACUUCAGC", "gene": "LRTOMT", "seed-corrected z-score": "-0.0148"}
{"sirna": "UUCCAUAUAUAAUCGUUUC", "gene": "FBXO11", "seed-corrected z-score": "0.7923"}
{"sirna": "UUUUUGAACCUGAUGUUGA", "gene": "THEM5", "seed-corrected z-score": "0.5179"}
{"sirna": "UCUUGAAUAAGUGAGUCAC", "gene": "PSMA6", "seed-corrected z-score": "0.8896"}
{"sirna": "UCUGGUUCACAUAUACUUC", "gene": "LOC653303", "seed-corrected z-score": "-1.135"}
{"sirna": "UACGGUGUCUUCUUGGAGC", "gene": "SIN3B", "seed-corrected z-score": "0.782"}
{"sirna": "UGUAGUAGAAGAUCCAUUG", "gene": "CXorf66", "seed-corrected z-score": "-1.994"}
{"sirna": "AGGAUUACCAGCUUGUUCU", "gene": "LINGO3", "seed-corrected z-score": "0.1551"}
{"sirna": "UUUACUAUACUGGUCUUAG", "gene": "ARF6", "seed-corrected z-score": "0.5373"}
{"sirna": "UUCGUUUUAUUACCUGGUC", "gene": "INTS8", "seed-corrected z-score": "0.4607"}
{"sirna": "UAAUGCUCAGUCUCUACCC", "gene": "NCAPH", "seed-corrected z-score": "0.4751"}
{"sirna": "AAGGCUUGCAGUCACAUCG", "gene": "PRR34", "seed-corrected z-score": "-0.1657"}
{"sirna": "UCAUCGAGAAGUCCCAGUC", "gene": "BDH2", "seed-corrected z-score": "-0.8551"}
{"sirna": "UAGAGUACCUUGGACUUCC", "gene": "OR2A25", "seed-corrected z-score": "0.6043"}
{"sirna": "UAAGUAGGUAAAUCAGUUA", "gene": "DLX4", "seed-corrected z-score": "0.06004"}
{"sirna": "UUCUUCAGCCCUAACAGGC", "gene": "ALKBH5", "seed-corrected z-score": "-0.02029"}
{"sirna": "AUAUAUCACAUUGAGUAGG", "gene": "ADAMDEC1", "seed-corrected z-score": "-0.4607"}
{"sirna": "UCUAGUUCCUGCAUGCUGC", "gene": "NRSN2", "seed-corrected z-score": "0.4214"}
{"sirna": "UAUAGGUUCCUGGACACGG", "gene": "ADGRL3", "seed-corrected z-score": "0.1022"}
{"sirna": "UUUUCGGUCAAUCACUUUC", "gene": "TRIT1", "seed-corrected z-score": "0.3064"}
{"sirna": "AAAGGUUGAACUGUAAUGC", "gene": "LOC646030", "seed-corrected z-score": "0.5476"}
{"sirna": "ACCGUUGCAGGAGUCCUUC", "gene": "KLK4", "seed-corrected z-score": "-0.08249"}
{"sirna": "AACUUGUGCACUGAAGUCC", "gene": "CDHR3", "seed-corrected z-score": "-0.8302"}
{"sirna": "ACAACUUCAAAAUUCGAUC", "gene": "PIEZO2", "seed-corrected z-score": "-0.5591"}
{"sirna": "UGAUUUGACGAAUAGGUCC", "gene": "SF3B6", "seed-corrected z-score": "-1.891"}
{"sirna": "UACAGAAUAACCUCUAUUC", "gene": "TMEM230", "seed-corrected z-score": "1.254"}
{"sirna": "UAGGGUGGUAAAAUGCUGU", "gene": "CHI3L1", "seed-corrected z-score": "0.9152"}
{"sirna": "UGUCUGAAUAGGAGCUUUC", "gene": "CWF19L1", "seed-corrected z-score": "-0.2909"}
{"sirna": "UCGUCAUUCACGAUCCUCC", "gene": "DPYSL4", "seed-corrected z-score": "-0.2244"}
{"sirna": "UGCAUGCUCAGCUAUUACC", "gene": "ETFA", "seed-corrected z-score": "0.00185"}
{"sirna": "AUCAUCAACACCGACAUUG", "gene": "COX18", "seed-corrected z-score": "-0.9285"}
{"sirna": "UUCGGAAGCUCGAUACUGC", "gene": "ACAD10", "seed-corrected z-score": "1.084"}
{"sirna": "UCGUCAUUGAGGGUCAUCC", "gene": "ZFHX4", "seed-corrected z-score": "-0.3318"}
{"sirna": "UUGGUAAUCAGAAUCAAGG", "gene": "ENDOD1", "seed-corrected z-score": "-0.6291"}
{"sirna": "UAUGUAUCAGCUCGAACAC", "gene": "HCN1", "seed-corrected z-score": "-1.546"}
{"sirna": "UAAUCAGGAGGUGAGUUCU", "gene": "YY1", "seed-corrected z-score": "-0.4719"}

Once more, the final 5:

* UUCGGAAGCUCGAUACUGC against ACAD10 | seed-corrected z-score 1.084
* UCGUCAUUGAGGGUCAUCC against ZFHX4 | seed-corrected z-score -0.3318
* UUGGUAAUCAGAAUCAAGG against ENDOD1 | seed-corrected z-score -0.6291
* UAUGUAUCAGCUCGAACAC against HCN1 | seed-corrected z-score -1.546
* UAAUCAGGAGGUGAGUUCU against YY1 | seed-corrected z-score -0.4719

Data taken from PubChem BioAssay AID1159506, deposited by NCATS (2015).